# Assay results: US20060263340A1, “Treating gastrointestinal diseases with modulators of retinoic acid” (priority 2005, published 2006)
# At least one structure is not confirmed: it was looked up by name or label, or the drawing left a doubt.
# How the values were obtained:
# B cells = test: In vivo homing of B cells activated with anti-IgM antibody in the presence or absence of retinoic acid; design: species or system mouse; settings: representative homing experiment (FIG. 16C)
# Experimental: FIG. 16 illustrates the effect of retinoic acid (RA) in the homing potential of B cells activated with an anti IgM antibody. Mouse spleen B cells are activated with an anti-IgM antibody, either with or without RA, and in the presence of non-intestinal dendritic cells (D1-DC) to improve the effector B cell viability. After 4 days in culture, naïve, B220^+ and B220^Neg (plasmablasts) effector B cells are assayed for (A) α4β7 (MFI: mean fluorescence intensity). (B) CCR9, and (C-D) migration of B cells activated in the presence or the absence of RA. […] In addition, most of the cells localizing in the small bowel mucosa are B220^Low/Neg (plasmablasts). (D) Bar graphs showing the mean±SE of 2 independent experiments. The homing indices (HI) indicate how much more (or less) B cells activated in the presence of RA migrate with respect to those activated without RA in a given tissue (HI=1 means no difference). […]
# Dendritic cells treated with retinoic acid (RA) as described in FIGS. 3-6, or gut derived DC (e.g. mobilized from Peyer's patches or mesenteric lymph nodes), or RA itself (see FIG. 15) can be used to activate naive or effector/memory T and/or B cells. […] After 4-5 days, the resulting effector T and/or B cells are analyzed for their expression of gut or skin homing molecules and migratory behavior (see FIG. 16).
# T cells = test: Expression of skin homing receptors on T cells activated with retinoic acid treated DC; format: cell-based, mouse; settings: then used to activate T cells
smiles,measurement,setting,value
"CC1=C(/C=C/C(C)=C/C=C/C(C)=C/C(=O)O)C(C)(C)CCC1 [RA, retinoic acid]",localization of B cells in the spleen as compared to B cells activated without RA,B cells,localize less in the spleen
same,expression of skin homing receptors,T cells,inhibit the expression of skin homing receptors
